Data: article PMC9989923
Results are given in words; binding and its absence hold for the method and conditions named. In cells and extracts the contact can be indirect. Some binding calls cover weakened binding; strength is not graded here.

By UniProt entry, the sequences of proteins in these tests, tags left out.
UniProt P0DMV8: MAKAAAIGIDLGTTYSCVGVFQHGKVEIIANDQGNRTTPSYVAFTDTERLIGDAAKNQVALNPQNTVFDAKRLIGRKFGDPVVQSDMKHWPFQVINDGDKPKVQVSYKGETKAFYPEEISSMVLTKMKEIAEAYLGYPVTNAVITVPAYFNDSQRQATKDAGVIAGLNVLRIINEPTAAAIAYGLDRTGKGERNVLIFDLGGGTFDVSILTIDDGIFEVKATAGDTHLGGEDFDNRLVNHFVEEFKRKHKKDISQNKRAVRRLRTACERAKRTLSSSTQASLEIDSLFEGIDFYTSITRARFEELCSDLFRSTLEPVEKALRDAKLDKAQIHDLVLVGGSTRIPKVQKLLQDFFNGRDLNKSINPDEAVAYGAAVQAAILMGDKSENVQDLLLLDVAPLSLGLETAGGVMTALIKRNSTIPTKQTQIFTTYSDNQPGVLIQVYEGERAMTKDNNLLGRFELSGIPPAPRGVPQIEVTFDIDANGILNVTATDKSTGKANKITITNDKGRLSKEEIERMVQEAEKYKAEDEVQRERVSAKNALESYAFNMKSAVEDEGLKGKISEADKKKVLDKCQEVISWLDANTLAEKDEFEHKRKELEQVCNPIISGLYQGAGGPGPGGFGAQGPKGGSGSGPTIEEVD
UniProt P25685: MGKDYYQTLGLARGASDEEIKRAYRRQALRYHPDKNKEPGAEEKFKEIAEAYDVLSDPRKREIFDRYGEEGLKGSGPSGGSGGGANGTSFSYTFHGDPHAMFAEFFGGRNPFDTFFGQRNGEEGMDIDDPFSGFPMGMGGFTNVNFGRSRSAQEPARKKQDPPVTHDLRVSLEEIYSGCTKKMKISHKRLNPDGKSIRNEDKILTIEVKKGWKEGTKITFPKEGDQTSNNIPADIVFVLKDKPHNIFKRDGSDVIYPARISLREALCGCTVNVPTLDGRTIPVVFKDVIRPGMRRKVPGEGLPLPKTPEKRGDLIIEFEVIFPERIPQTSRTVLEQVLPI

Biological target: HSP70‐1A (human (endogenous in PC3 and HuH7)) (UniProt P0DMV8)
Test: co-IP; whole-cell extracts (300 μg) of PC3 and HuH7 cells treated with GO-Y030 (2 μM) or dimethylsulfoxide for 24 h; precipitated with anti-HSP70/HSP72 mAb clone C92F3A-5 and Protein A/G PLUS-Agarose at 4 °C; immunoblot; isotype control mouse IgG1

binding: binds
Substance: dnaJ‐B1 (from UniProt P25685 1-340)
